These are yes or no findings as the source states them, for the method shown. Some binding calls cover weakened binding; strength is not graded here. For some assays here: Where a sequence is shown, tags or fusion partners need not be part of it.
T1: neuropilin 1 (NRP1) (UniProt O14786)
T1 sequence (chain, biotinylated at a 1,2 molar ratio): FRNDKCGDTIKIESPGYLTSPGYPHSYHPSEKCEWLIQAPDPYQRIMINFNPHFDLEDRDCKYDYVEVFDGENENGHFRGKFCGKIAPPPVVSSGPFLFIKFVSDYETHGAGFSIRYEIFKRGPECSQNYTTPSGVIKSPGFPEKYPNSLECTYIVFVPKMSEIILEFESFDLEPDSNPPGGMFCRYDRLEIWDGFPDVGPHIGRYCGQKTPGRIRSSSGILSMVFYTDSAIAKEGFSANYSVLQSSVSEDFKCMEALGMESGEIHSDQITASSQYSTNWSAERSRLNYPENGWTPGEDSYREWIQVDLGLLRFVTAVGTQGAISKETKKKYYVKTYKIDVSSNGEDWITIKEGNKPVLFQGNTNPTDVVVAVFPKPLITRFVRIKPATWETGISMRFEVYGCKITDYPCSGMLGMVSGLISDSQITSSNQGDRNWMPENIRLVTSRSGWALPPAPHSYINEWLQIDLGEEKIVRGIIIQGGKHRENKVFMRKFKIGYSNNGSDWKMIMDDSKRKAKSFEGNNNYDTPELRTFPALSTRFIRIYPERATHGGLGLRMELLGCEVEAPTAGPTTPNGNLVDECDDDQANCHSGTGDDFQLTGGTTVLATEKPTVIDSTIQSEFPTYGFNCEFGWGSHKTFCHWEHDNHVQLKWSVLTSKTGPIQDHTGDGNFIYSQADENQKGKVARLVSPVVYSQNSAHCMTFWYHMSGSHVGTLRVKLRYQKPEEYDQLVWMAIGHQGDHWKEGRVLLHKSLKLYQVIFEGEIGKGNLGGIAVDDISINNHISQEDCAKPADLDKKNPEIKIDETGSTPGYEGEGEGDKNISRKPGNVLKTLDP


Legend:
[1] = biological target: mouse RELN-H3448R (mRELN-COLBOS) of the knockin mouse (mouse (endogenous in knockin mice)) (UniProt Q60841); assay: western blot of higher molecular weight oligomers; cerebellum homogenates of WT, heterozygous and homozygous RELN-H3448R knockin mice; enhanced oligomerization seen only in male mice; details in Supplementary Figs. 8 and 9
neuropilin 1 (NRP1) = biological target: T1, neuropilin 1 (NRP1); assay: BLI; biotinylated NRP1 immobilised on streptavidin biosensor tips (Octet); 30 °C, 1,000 rpm; 240 s association, 300 s dissociation; SD Buffer (PBS, 0.05% Tween 20, 0.01% BSA, pH 7.4); 1:1 binding model, global fitting; both purified

Molecule | binding [1] | binding (neuropilin 1 (NRP1))
mouse RELN-H3448R (mRELN-COLBOS) of the knockin mouse (from UniProt Q60841 27-3461) | binds | 
STRKQNYMMNFSRQHGLRHFYNRRRRSLRRYP (Fc fusion, UniProt P78509 3429-3460) [Fc-fusion WT CTR-RELN (C-terminal region of Reelin, amino acids 3,429-3,460)] |  | binds

Reference: PMC10202812, “Resilience to autosomal dominant Alzheimer’s disease in a Reelin-COLBOS heterozygous man” (Nature Medicine, 2023)
